Experimental findings from PubChem BioAssay AID1487 (National Center for Advancing Translational Sciences (NCATS), 2009) are described below.

By AC50 is commonly meant the concentration at which the activity in the assay is half-maximal.

This experiment in a line: qHTS Assay for Modulators of Lamin A Splicing. Conditions: HeLa LMNA splicing GFP/RFP minigene ratio, 48 h. In outline:
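S3 HeLa cells stably expressing lamin A-EGFP splicing minigene plus DsRed2, 600 cells/well, 48 h compound exposure at 37C. Laser-scanning cytometry; analysed as GFP (500-530 nm)/RFP (575-640 nm) total intensity ratio; 0.5% DMSO vehicle.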
(In general: Quantitative high-throughput screening tests each substance at several concentrations.)

Setting [1] is: measured here: RFP viability control channel.
Setting [2] is: measured here: GFP splicing reporter channel.

The list shows a part of the results. Shown are side measurements of this screen, not its main read-out; they come without a call. The list favours compounds with an active or inconclusive main result. Words in brackets tell the shape of the fitted curve; partial curves, single points and poor fits give uncertain potencies.

For `COc1cccc(OCCn2cc(C(=O)c3ccco3)c3ccccc32)c1`, the AC50 under setting [1] is 12.6 µM [rising, single point].

On to `CC(=O)c1cc2ccccc2oc1=O`, for which the AC50 under setting [2] was 0.158 µM [falling, single point]. Turning to `CN(CC(=O)NCCc1ccccc1)S(=O)(=O)c1cccc2nsnc12`, the AC50 under setting [1] was 22.4 µM [rising, single point]. Turning to `COc1cc(CNc2cccc(C(=O)O)c2)cc(Br)c1OCC(=O)NC(C)(C)C`, the AC50 under setting [2] is 2 µM [falling, full curve] and the AC50 under setting [1] was 2.51 µM [falling, full curve, poor fit]. For the molecule `CCCCC1=CC2=C(c3ccco3)C(=O)C(C)(OC(=O)c3ccc(OC)cc3)C(=O)C2=CN1c1ccc(OC)cc1` (centres undefined), the AC50 under setting [1] is 0.891 µM [falling, single point]. As to `c1ccc2c(c1)CC(N1CCN(c3cccc4c3OCCO4)CC1)C2`, the AC50 under setting [1] was 0.00447 µM [falling, full curve, poor fit]. Turning to `O=C(Nc1cccc(C(=O)N2CCN(c3ccc(F)cc3)CC2)c1)c1nsc2ccccc12`, the AC50 is 35.5 µM [falling, single point] under setting [2] and 35.5 µM [falling, single point] under setting [1]. `CC(Cc1cccs1)NC(=S)Nc1ccccc1` (centres undefined): the AC50 runs as follows: under setting [2], 11.2 µM [rising, single point]; under setting [1], 15.8 µM [rising, single point]. For `CCOC(=O)c1[nH]c(C)c(C(=O)NCc2ccco2)c1C`, the AC50 reads like this: under setting [2], 22.4 µM [falling, partial curve, poor fit]; under setting [1], 0.00501 µM [falling, full curve, poor fit]. With `CC(C)c1nc(SCC(=O)N2c3ccccc3CC2C)c2ccccc2n1` (centres undefined), the AC50 under setting [1] is 20 µM [rising, single point].

Take `O=S(=O)(Nc1ccccn1)c1ccc(Cl)cc1`: the half-maximal activity concentration (AC50) under setting [2] was 2.51 µM [falling, partial curve] and the AC50 under setting [1] was 1.26 µM [falling, full curve, poor fit].

For the molecule `Cc1cccc(CSc2nc3c(c(-c4cccs4)c2C#N)CN(C)CC3)c1`, the AC50 runs as follows: under setting [2], 0.0224 µM [rising, full curve, poor fit]; under setting [1], 1.12 µM [rising, partial curve, poor fit]. As to `O=C(Nc1cccc(N=Cc2cc(Cl)cc(Br)c2O)c1)c1ccco1`, the AC50 under setting [1] is 31.6 µM [rising, single point].

Take `CCn1c2ccccc2c2cc(CN3CCN(S(=O)(=O)CC)CC3)ccc21`: the AC50 under setting [1] was 15.8 µM [rising, partial curve].

On to `Cc1c(Cl)c(=O)oc2cc(OCC(=O)NCc3cccs3)ccc12`, for which the AC50 reads like this: under setting [2], 0.355 µM [falling, full curve, poor fit]; under setting [1], 0.316 µM [falling, partial curve]. Turning to `CC(=O)n1c2c(c3ccccc31)OC(N)=C(C#N)C2c1cccc(Cl)c1Cl` (centres undefined), the AC50 under setting [1] was 7.94 µM [rising, partial curve]. Turning to `COc1ccc(CCNC(=S)Nc2ccc(OC)cc2)cc1`, the AC50 is, setting by setting: under setting [2], 22.4 µM [rising, partial curve, poor fit]; under setting [1], 35.5 µM [rising, single point]. For the molecule `CCN(CC)c1ccc(S(=O)(=O)Nc2cc(Cl)ccc2Cl)cc1NC(=S)NC(=O)C1CCCC1`, the AC50 is 12.6 µM [rising, partial curve] under setting [2] and 35.5 µM [rising, single point] under setting [1]. On to `Cc1cccc(-c2nc(CS(=O)CC(=O)NCCCSC3CCCCC3)c(C)o2)c1` (centres undefined), for which the AC50 under setting [1] was 15.8 µM [rising, single point]. As for `CC(Oc1ccccc1)c1ccnc2nc(N3CCOCC3)nn12` (centres undefined), the AC50 was 35.5 µM [falling, single point] under setting [2] and 35.5 µM [falling, single point] under setting [1]. For the molecule `CC(=O)c1ccc(NC(=O)/C=C/c2ccc(C)cc2)cc1`, the AC50 was 35.5 µM [rising, single point] under setting [2] and 35.5 µM [rising, single point] under setting [1].

Consider `CCN(CC)CCOc1ccc2c(c1)C(=NNC(=O)c1ccccn1)c1cc(OCCN(CC)CC)ccc1-2`, for which the AC50 was 35.5 µM [falling, single point] under setting [2] and 35.5 µM [falling, single point] under setting [1].

For the molecule `Cc1ccc2[nH]c(C)c(CCNC(=O)NC3CCCCC3)c2c1`, the AC50 under setting [1] is 6.31 µM [falling, single point]. `Cc1cc(NC(=O)c2cc3ccccc3o2)cc(C)c1OCC(=O)N1CCOCC1`: the AC50 under setting [1] was 20 µM [rising, partial curve, poor fit]. As for `CC(C)(C)c1ccc(C(=O)CC(Sc2ccc(Cl)cc2)C(=O)O)cc1` (centres undefined), the AC50 under setting [2] was 0.02 µM [falling, full curve, poor fit].

`Cc1ccc(OCC(=O)c2cc(C)n(CC(F)(F)F)c2C)c([N+](=O)[O-])n1`: the AC50 reads like this: under setting [2], 11.2 µM [rising, partial curve, poor fit]; under setting [1], 11.2 µM [rising, partial curve]. In the case of `CC[C@H]1OC(=O)[C@H](C)[C@@H](O[C@H]2C[C@@](C)(OC)[C@@H](O)[C@H](C)O2)[C@H](C)[C@@H](O[C@@H]2O[C@H](C)C[C@H](N(C)C)[C@H]2O)[C@](C)(O)C[C@@H](C)CN(C)[C@H](C)[C@@H](O)[C@]1(C)O`, the AC50 under setting [1] was 0.631 µM [falling, partial curve, poor fit]. With `CCN(CC)CCNC(=O)CNC(=S)N(CCCN1CCOCC1)Cc1cccs1`, the AC50 under setting [2] was 6.31 µM [falling, single point].

Consider `O=C(c1nn(-c2ccccc2)c(=O)c2ccccc12)N1CCN(c2ncccn2)CC1`, for which the AC50 under setting [1] was 11.2 µM [rising, single point].

With `Cc1ccc(C(=O)C(C)Sc2nnc(N)s2)cc1` (centres undefined), the AC50 under setting [2] is 0.02 µM [falling, full curve, poor fit]. Take `COc1ccc(-c2cc(C(F)(F)F)nc(NC3CCCC3)n2)cc1OC`: the AC50 is 22.4 µM [falling, single point] under setting [2] and 11.2 µM [falling, partial curve] under setting [1]. Regarding `COCC(C)NC(=O)c1ccc(CN2CCc3ccccc3C2)cc1` (centres undefined), the AC50 is, setting by setting: under setting [2], 0.794 µM [falling, partial curve]; under setting [1], 0.0224 µM [falling, full curve]. For the molecule `Cc1cc(C)c(/C=C/c2onc(C)c2S(=O)(=O)N2CCC(C(=O)Nc3ccc(Cl)c(C(F)(F)F)c3)CC2)c(C)c1`, the AC50 by setting is: under setting [2], 5.62 µM [rising, single point]; under setting [1], 20 µM [rising, single point].
